PubChem BioAssay AID1224830 | NIAID, 2016
The deposit covers about 18,000 reagents; shown is an unselected part. About 2,900 of all reagents (16%) were called active. 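Calls are made per well; low scores hint the gene aids the LPS response, high scores that it dampens it.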 Repeated entries: four replicate wells of each siRNA pool. Reagent sequences are not shown.

Test: 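Host factors that control LPS-induced TNF expression in human macrophages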 (primary screen)
Cell system: human THP-1 monocytic leukaemia cells, TNF dual-luciferase reporter clone, PMA-differentiated to macrophage-like cells
Reagents: siRNA pool against human genes, 50 nM
Timing: LPS for 4 h, given about 3 days after siRNA transfection
Conditions: bacterial LPS (TLR4 ligand), 10 ng/ml
Measurement: 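Ratio of firefly to renilla light, scaled to the plate median and expressed as a robust z-score per replicate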
Direction: TNF reporter robust z-score: higher = stronger TNF reporter response to LPS
Call rule: 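a well is active when its z-score exceeds 2.8 or falls below -1.5; control wells carry no call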

TNF reporter robust z-score | call | Gene
-0.06 | inactive | AGTR1 (angiotensin II receptor type 1)
0.44 | inactive | AGTR1 (angiotensin II receptor type 1)
0.02 | inactive | AGTR1 (angiotensin II receptor type 1)
0.36 | inactive | AGTR1 (angiotensin II receptor type 1)
0.22 | inactive | EPHA7 (EPH receptor A7)
-0.04 | inactive | EPHA7 (EPH receptor A7)
0.73 | inactive | EPHA7 (EPH receptor A7)
0.44 | inactive | EPHA7 (EPH receptor A7)
-0.18 | inactive | KDR (kinase insert domain receptor)
1.12 | inactive | KDR (kinase insert domain receptor)
2.5 | inactive | KDR (kinase insert domain receptor)
-0.43 | inactive | KDR (kinase insert domain receptor)
1.41 | inactive | CD37 (CD37 molecule)
-1.19 | inactive | CD37 (CD37 molecule)
-0.81 | inactive | CD37 (CD37 molecule)
-0.86 | inactive | CD37 (CD37 molecule)
-1.13 | inactive | H1-2 (H1.2 linker histone, cluster member)
-0.27 | inactive | H1-2 (H1.2 linker histone, cluster member)
-0.44 | inactive | H1-2 (H1.2 linker histone, cluster member)
0.06 | inactive | H1-2 (H1.2 linker histone, cluster member)
-0.43 | inactive | POU6F1 (POU class 6 homeobox 1)
1.18 | inactive | POU6F1 (POU class 6 homeobox 1)
1.26 | inactive | POU6F1 (POU class 6 homeobox 1)
-0.06 | inactive | POU6F1 (POU class 6 homeobox 1)

Continued, starting with the last 2 of the part before.
TNF reporter robust z-score | call | Gene
1.26 | inactive | POU6F1 (POU class 6 homeobox 1)
-0.06 | inactive | POU6F1 (POU class 6 homeobox 1)
2.48 | inactive | WASF1 (WASP family member 1)
1.98 | inactive | WASF1 (WASP family member 1)
3.14 | active | WASF1 (WASP family member 1)
1.3 | inactive | WASF1 (WASP family member 1)
0.53 | inactive | MCUB
1.09 | inactive | MCUB
-0.08 | inactive | MCUB
0.39 | inactive | MCUB
4.41 | active | OR4K13 (olfactory receptor family 4 subfamily K member 13)
3.34 | active | OR4K13 (olfactory receptor family 4 subfamily K member 13)
1.67 | inactive | OR4K13 (olfactory receptor family 4 subfamily K member 13)
1.98 | inactive | OR4K13 (olfactory receptor family 4 subfamily K member 13)
0.37 | inactive | COX16 (cytochrome c oxidase assembly factor COX16)
0.28 | inactive | COX16 (cytochrome c oxidase assembly factor COX16)
0.09 | inactive | COX16 (cytochrome c oxidase assembly factor COX16)
0.19 | inactive | COX16 (cytochrome c oxidase assembly factor COX16)
-1.6 | active | MOV10 (Mov10 RNA helicase)
-0.5 | inactive | MOV10 (Mov10 RNA helicase)
-0.89 | inactive | MOV10 (Mov10 RNA helicase)
-0.57 | inactive | MOV10 (Mov10 RNA helicase)
-0.26 | inactive | LEAP2 (liver enriched antimicrobial peptide 2)
-0.64 | inactive | LEAP2 (liver enriched antimicrobial peptide 2)
-0.87 | inactive | LEAP2 (liver enriched antimicrobial peptide 2)
0.17 | inactive | LEAP2 (liver enriched antimicrobial peptide 2)
